{"source": "PubChem BioAssay AID1259274 (Sanger Institute, 2017)", "aim": "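Kinases RKO cells need to grow, alone or with anchor drugs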 (primary screen)", "system": "human RKO colorectal cancer cells", "reagent": "siRNA pool against human genes", "challenge": "anchor drugs BYL719 at 1 µM, cetuximab at 5 µg/ml or trametinib at 10 nM; DMSO vehicle as the no-drug arm", "detection": "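Viability of cells versus control pool 2 (non-targeting) averaged across replicates; knock-down-only robust z-score; for every anchor drug (BYL719, cetuximab, trametinib) a synergy score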", "scale": "viability z-score, siRNA alone: higher = more viable cells; low values mean essential gene; viability, siRNA alone, vehicle: higher = more viable cells", "active means": "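a single knock-down scoring under -3 on the robust z-score, meaning fewer cells, counts as essential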", "calls": "active = essential when knocked down alone; inactive = no change alone", "note": "This is one part, drawn at random, of 794 reagents. 11 of all reagents (1.4%) were called active. 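Calls rest on knock-down without drug only; synergy scores with anchor drugs were not used for the essential call.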 No viability above 1 is reported: the scale is capped. Further read-outs or replicates are left out here. The record does not give: the amount of reagent, the time to read-out."}
{"gene": "ALPK1 (GeneID 80216)", "viability z-score, siRNA alone": -0.293, "viability, siRNA alone, vehicle (fraction of control)": 0.873, "outcome": "inactive"}
{"gene": "PANK1 (GeneID 53354)", "viability z-score, siRNA alone": 0.223, "viability, siRNA alone, vehicle (fraction of control)": 0.917, "outcome": "inactive"}
{"gene": "ASPM (GeneID 259266)", "viability z-score, siRNA alone": -0.172, "viability, siRNA alone, vehicle (fraction of control)": 0.883, "outcome": "inactive"}
{"gene": "ANKK1 (GeneID 255239)", "viability z-score, siRNA alone": 0.136, "viability, siRNA alone, vehicle (fraction of control)": 0.91, "outcome": "inactive"}
{"gene": "CSNK2B (GeneID 1460)", "viability z-score, siRNA alone": 0.246, "viability, siRNA alone, vehicle (fraction of control)": 0.919, "outcome": "inactive"}
{"gene": "EPHA2 (GeneID 1969)", "viability z-score, siRNA alone": 1.19, "viability, siRNA alone, vehicle (fraction of control)": 1, "outcome": "inactive"}
{"gene": "CALM2 (GeneID 805)", "viability z-score, siRNA alone": 0.417, "viability, siRNA alone, vehicle (fraction of control)": 0.934, "outcome": "inactive"}
{"gene": "TWF2 (GeneID 11344)", "viability z-score, siRNA alone": -0.721, "viability, siRNA alone, vehicle (fraction of control)": 0.836, "outcome": "inactive"}
{"gene": "COASY (GeneID 80347)", "viability z-score, siRNA alone": -1.73, "viability, siRNA alone, vehicle (fraction of control)": 0.75, "outcome": "inactive"}
{"gene": "FASTK (GeneID 10922)", "viability z-score, siRNA alone": -0.467, "viability, siRNA alone, vehicle (fraction of control)": 0.858, "outcome": "inactive"}
{"gene": "ERN2 (GeneID 10595)", "viability z-score, siRNA alone": -0.214, "viability, siRNA alone, vehicle (fraction of control)": 0.88, "outcome": "inactive"}
{"gene": "BCR (GeneID 613)", "viability z-score, siRNA alone": -1.48, "viability, siRNA alone, vehicle (fraction of control)": 0.771, "outcome": "inactive"}
{"gene": "PRKAR2B (GeneID 5577)", "viability z-score, siRNA alone": 0.815, "viability, siRNA alone, vehicle (fraction of control)": 0.968, "outcome": "inactive"}
{"gene": "SCYL3 (GeneID 57147)", "viability z-score, siRNA alone": 0.3, "viability, siRNA alone, vehicle (fraction of control)": 0.924, "outcome": "inactive"}
{"gene": "GOLGA5 (GeneID 9950)", "viability z-score, siRNA alone": 0.269, "viability, siRNA alone, vehicle (fraction of control)": 0.921, "outcome": "inactive"}
{"gene": "TP53 (GeneID 7157)", "viability z-score, siRNA alone": -0.235, "viability, siRNA alone, vehicle (fraction of control)": 0.878, "outcome": "inactive"}
{"gene": "PGK2 (GeneID 5232)", "viability z-score, siRNA alone": -0.339, "viability, siRNA alone, vehicle (fraction of control)": 0.869, "outcome": "inactive"}
{"gene": "CDK20 (GeneID 23552)", "viability z-score, siRNA alone": -1.62, "viability, siRNA alone, vehicle (fraction of control)": 0.759, "outcome": "inactive"}
{"gene": "DLG4 (GeneID 1742)", "viability z-score, siRNA alone": 1.17, "viability, siRNA alone, vehicle (fraction of control)": 0.998, "outcome": "inactive"}
{"gene": "GNAS (GeneID 2778)", "viability z-score, siRNA alone": 0.0339, "viability, siRNA alone, vehicle (fraction of control)": 0.901, "outcome": "inactive"}
{"gene": "PRPS2 (GeneID 5634)", "viability z-score, siRNA alone": 0.0119, "viability, siRNA alone, vehicle (fraction of control)": 0.899, "outcome": "inactive"}
{"gene": "HK3 (GeneID 3101)", "viability z-score, siRNA alone": 1.19, "viability, siRNA alone, vehicle (fraction of control)": 1, "outcome": "inactive"}
{"gene": "CDK5R1 (GeneID 8851)", "viability z-score, siRNA alone": 0.242, "viability, siRNA alone, vehicle (fraction of control)": 0.919, "outcome": "inactive"}
{"gene": "CSNK2A2 (GeneID 1459)", "viability z-score, siRNA alone": -1.19, "viability, siRNA alone, vehicle (fraction of control)": 0.796, "outcome": "inactive"}
{"gene": "MAP3K7 (GeneID 6885)", "viability z-score, siRNA alone": 1.19, "viability, siRNA alone, vehicle (fraction of control)": 1, "outcome": "inactive"}
{"gene": "FLT4 (GeneID 2324)", "viability z-score, siRNA alone": 0.872, "viability, siRNA alone, vehicle (fraction of control)": 0.973, "outcome": "inactive"}
{"gene": "DDR1 (GeneID 780)", "viability z-score, siRNA alone": 1.19, "viability, siRNA alone, vehicle (fraction of control)": 1, "outcome": "inactive"}
{"gene": "ERN1 (GeneID 2081)", "viability z-score, siRNA alone": -1.44, "viability, siRNA alone, vehicle (fraction of control)": 0.775, "outcome": "inactive"}
{"gene": "PRKD1 (GeneID 5587)", "viability z-score, siRNA alone": 0.887, "viability, siRNA alone, vehicle (fraction of control)": 0.974, "outcome": "inactive"}
{"gene": "GATA3 (GeneID 2625)", "viability z-score, siRNA alone": 0.196, "viability, siRNA alone, vehicle (fraction of control)": 0.915, "outcome": "inactive"}
{"gene": "WNK4 (GeneID 65266)", "viability z-score, siRNA alone": -0.445, "viability, siRNA alone, vehicle (fraction of control)": 0.86, "outcome": "inactive"}
{"gene": "PKDCC (GeneID 91461)", "viability z-score, siRNA alone": -0.3, "viability, siRNA alone, vehicle (fraction of control)": 0.872, "outcome": "inactive"}
{"gene": "CSK (GeneID 1445)", "viability z-score, siRNA alone": 0.858, "viability, siRNA alone, vehicle (fraction of control)": 0.971, "outcome": "inactive"}
{"gene": "RPS6KC1 (GeneID 26750)", "viability z-score, siRNA alone": -0.262, "viability, siRNA alone, vehicle (fraction of control)": 0.876, "outcome": "inactive"}
{"gene": "AXL (GeneID 558)", "viability z-score, siRNA alone": 1.19, "viability, siRNA alone, vehicle (fraction of control)": 1, "outcome": "inactive"}
{"gene": "VRK1 (GeneID 7443)", "viability z-score, siRNA alone": -0.369, "viability, siRNA alone, vehicle (fraction of control)": 0.866, "outcome": "inactive"}

Part of the list above, reduced to “viability z-score, siRNA alone”.
FLT4 (GeneID 2324): 0.872
DDR1 (GeneID 780): 1.19
